For some assays here: At least one peptide structure holds a part that was inferred or is arguable (an end, a ring closure or a residue). Some entries repeat one wording, which the source may state once for all of them. For some assays here: At least one compound was matched to its structure with a doubt left. Some entries share one result that the patent states for a list of compounds. Some compounds share one range, which may span the group rather than tell each member. Where a SMILES comes first, the peptide text is derived from it. Bridges are numbered along the chain shown (N, C = ends).
Columns and labels:
[1] = test system: Collagen Induced Arthritis (CIA) in Mice; assay: Collagen induced arthritis (CIA) model in mice; type: in vivo, DBA/1 mice; conditions: for reduction of clinical grade of arthritis and paw swelling (in words): 0.4 mg/kg s.c. once a day days 25-29; for paw thickness: day 50, sick mice 2.83 mm
sstr1 = biological target: T1, sstr1 (Homo sapiens, UniProt P30872); conditions: published, Spier et al. 2000; read-out: IC50 (sstr1), range of values published; cited from earlier work
T1 construct: expressed in transfected cells; host or cells: CHO-K1

Protein sequences, listed by entry. Tags and fused reporters are not part of them.
UniProt P30872, whole entry, species assumed: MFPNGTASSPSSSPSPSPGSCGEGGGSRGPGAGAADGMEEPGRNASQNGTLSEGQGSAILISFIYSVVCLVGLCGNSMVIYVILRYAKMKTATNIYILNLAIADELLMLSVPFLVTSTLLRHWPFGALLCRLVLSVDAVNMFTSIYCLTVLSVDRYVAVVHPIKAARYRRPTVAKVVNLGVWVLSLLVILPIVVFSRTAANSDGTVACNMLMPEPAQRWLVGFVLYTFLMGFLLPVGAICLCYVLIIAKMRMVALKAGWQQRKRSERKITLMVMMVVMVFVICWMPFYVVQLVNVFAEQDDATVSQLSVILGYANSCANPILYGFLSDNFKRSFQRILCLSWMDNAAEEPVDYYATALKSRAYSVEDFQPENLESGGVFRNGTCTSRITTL

SMILES | reduction of clinical grade of arthritis and paw swelling (in words) [1] | paw thickness [1] | IC50 (sstr1) [nM]
CCCCCCCC(=O)N1CCC[C@H]1C(=O)N[C@H]1CSSC[C@@H](C(=O)N[C@@H](CCCCN)C(=O)O)NC(=O)[C@H](CO)NC(=O)[C@H]([C@@H](C)O)NC(=O)[C@H](Cc2ccccc2)NC(=O)[C@H]([C@@H](C)O)NC(=O)[C@H](CCCCN)NC(=O)[C@@H](Cc2c[nH]c3ccccc23)NC(=O)[C@H](Cc2ccccc2)NC(=O)[C@H](Cc2c(C)cc(C)cc2C)NC(=O)[C@H](CC(N)=O)NC(=O)[C@H](CCCCN)NC1=O [Compound 4, Octanoyl-L-Pro-c[L-Cys-L-Lys-L-Asn-L-Msa-L-Phe-D-Trp-L-Lys-L-Thr-L-Phe-L-Thr-L-Ser-L-Cys-]-L-Lys-OH] | substantial improvement | 2.3-2.5 mm | –
CCCCCCCC(=O)N1CCC[C@H]1C(=O)N[C@H]1CSSC[C@@H](C(=O)O)NC(=O)[C@H](CO)NC(=O)[C@H]([C@@H](C)O)NC(=O)[C@H](Cc2ccccc2)NC(=O)[C@H]([C@@H](C)O)NC(=O)[C@H](CCCCN)NC(=O)[C@@H](Cc2c[nH]c3ccccc23)NC(=O)[C@H](Cc2ccccc2)NC(=O)[C@H](Cc2c(C)cc(C)cc2C)NC(=O)[C@H](CC(N)=O)NC(=O)[C@H](CCCCN)NC1=O [Compound 5, Octanoyl-L-Pro-c[L-Cys-L-Lys-L-Asn-L-Msa-L-Phe-D-Trp-L-Lys-L-Thr-L-Phe-L-Thr-L-Ser-L-Cys]-OH] | substantial improvement | 2.3-2.5 mm | –
C[C@@H](O)[C@@H]1NC(=O)[C@H](CCCCN)NC(=O)[C@H](Cc2c[nH]c3ccccc23)NC(=O)[C@H](Cc2ccccc2)NC(=O)[C@H](Cc2ccccc2)NC(=O)[C@H](CC(N)=O)NC(=O)[C@H](CCCCN)NC(=O)[C@@H](NC(=O)[C@@H]2CCCN2)CSSC[C@@H](C(=O)N[C@@H](CCCCN)C(=O)O)NC(=O)[C@H](CO)NC(=O)[C@H](CO)NC(=O)[C@H](Cc2ccccc2)NC1=O [cortistatin] (H-PCKNFFWKTFSSCK-OH; disulfide 2-13) | – | – | 1 to 5

Reference: patent US12297294B2, “Cortistatin analogues for the treatment of inflammatory and/or immune diseases” (BCN PEPTIDES, S.A., priority 2013, dated 2025)
